# Primary screen of a compound library

Amino acid sequences for entries named in this document (tags omitted). Residues count along the entry.
UniProt P9WNZ1, whole entry: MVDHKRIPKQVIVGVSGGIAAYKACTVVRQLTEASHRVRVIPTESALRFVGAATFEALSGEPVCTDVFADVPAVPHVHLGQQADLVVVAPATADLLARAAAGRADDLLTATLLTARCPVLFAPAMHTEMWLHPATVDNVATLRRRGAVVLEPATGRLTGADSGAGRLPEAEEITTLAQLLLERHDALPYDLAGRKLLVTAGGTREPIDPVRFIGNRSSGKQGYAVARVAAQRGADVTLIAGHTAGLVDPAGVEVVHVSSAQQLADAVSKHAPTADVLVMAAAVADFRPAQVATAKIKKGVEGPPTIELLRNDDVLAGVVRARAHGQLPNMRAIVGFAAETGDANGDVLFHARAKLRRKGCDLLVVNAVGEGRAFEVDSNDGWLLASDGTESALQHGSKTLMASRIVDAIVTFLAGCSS
UniProt P9WFT3, whole entry: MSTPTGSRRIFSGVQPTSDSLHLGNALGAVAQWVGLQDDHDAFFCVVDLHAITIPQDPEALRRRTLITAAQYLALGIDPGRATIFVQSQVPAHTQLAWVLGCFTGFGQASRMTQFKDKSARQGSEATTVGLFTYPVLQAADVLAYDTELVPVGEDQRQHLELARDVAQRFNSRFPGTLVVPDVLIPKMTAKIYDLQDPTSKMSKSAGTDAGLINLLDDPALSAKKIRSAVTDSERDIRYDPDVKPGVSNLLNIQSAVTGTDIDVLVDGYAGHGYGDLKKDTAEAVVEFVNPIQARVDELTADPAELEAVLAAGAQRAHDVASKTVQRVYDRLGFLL
UniProt Q4DA54, 1-478: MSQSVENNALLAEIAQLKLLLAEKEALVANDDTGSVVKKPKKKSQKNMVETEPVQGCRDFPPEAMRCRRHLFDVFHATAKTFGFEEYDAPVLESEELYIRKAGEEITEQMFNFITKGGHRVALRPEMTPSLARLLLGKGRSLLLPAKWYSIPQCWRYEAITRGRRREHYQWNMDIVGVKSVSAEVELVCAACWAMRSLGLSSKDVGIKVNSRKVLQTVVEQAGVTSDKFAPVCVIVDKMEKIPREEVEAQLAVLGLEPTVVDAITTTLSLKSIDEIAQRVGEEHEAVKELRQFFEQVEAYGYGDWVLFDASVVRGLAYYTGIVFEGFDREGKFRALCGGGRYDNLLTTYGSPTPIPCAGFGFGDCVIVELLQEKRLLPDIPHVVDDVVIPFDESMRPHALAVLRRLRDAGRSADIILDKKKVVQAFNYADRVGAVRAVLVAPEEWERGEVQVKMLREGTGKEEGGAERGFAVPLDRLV
UniProt Q8IDJ8, 1-583: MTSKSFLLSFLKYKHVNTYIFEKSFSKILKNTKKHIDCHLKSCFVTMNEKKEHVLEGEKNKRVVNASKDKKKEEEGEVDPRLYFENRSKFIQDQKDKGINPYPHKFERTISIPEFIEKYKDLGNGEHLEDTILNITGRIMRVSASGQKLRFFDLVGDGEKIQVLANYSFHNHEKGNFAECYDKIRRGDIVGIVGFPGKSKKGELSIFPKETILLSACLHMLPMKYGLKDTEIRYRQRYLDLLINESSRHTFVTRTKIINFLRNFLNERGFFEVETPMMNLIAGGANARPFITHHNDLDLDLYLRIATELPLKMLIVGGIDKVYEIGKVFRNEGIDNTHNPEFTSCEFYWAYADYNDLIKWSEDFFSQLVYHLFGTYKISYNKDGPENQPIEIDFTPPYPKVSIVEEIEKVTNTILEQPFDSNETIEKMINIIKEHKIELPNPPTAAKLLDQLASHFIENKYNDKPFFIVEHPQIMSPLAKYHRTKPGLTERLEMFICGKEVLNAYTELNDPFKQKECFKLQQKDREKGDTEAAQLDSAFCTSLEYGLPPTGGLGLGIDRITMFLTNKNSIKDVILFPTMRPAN

A: 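Enzyme assay of CoaBC with a phosphate dye (Biomol Green) read at 650 nm. Target: Coenzyme A biosynthesis protein CoaBC, Mycobacterium tuberculosis (UniProt P9WNZ1). Tested at 30 µM. Higher reads as stronger inhibition, judged from the few compounds that gave an IC50. Most strong results did not repeat in a second test. Size under these conditions: about 67,000 compounds, about 40 of them at 50% or above in at least one test.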
B: 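Tryptophan-tRNA ligase, Mycobacterium tuberculosis (UniProt P9WFT3). Enzyme assay of tryptophanyl-tRNA synthetase; the read-out is not stated. Compounds at 10 µM. Direction is not recorded; retested compounds ran higher, which suggests that high means inhibition. Of about 65,000 compounds tested this way, about 64 (0.098%) reached 50% or more in at least one test.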
C: 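Enzyme assay of histidyl-tRNA synthetase; the read-out is not stated. Target: Histidine-tRNA ligase, Trypanosoma cruzi CL Brener (UniProt Q4DA54). Tested at 30 µM. The record gives no direction; compounds that gave an IC50 in retests scored well above the rest, so higher reads as stronger inhibition. Size under these conditions: about 69,000 compounds, about 31 of them at 50% or above in at least one test.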
D: 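Lysine-tRNA ligase, Plasmodium falciparum 3D7 (UniProt Q8IDJ8). Enzyme assay of the cytosolic lysyl-tRNA synthetase in 384-well plates, read by luminescence. Tested at 30 µM. Higher reads as stronger inhibition, judged from the few compounds that gave an IC50. Size under these conditions: about 69,000 compounds, about 49 of them at 50% or above in at least one test.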

Each number is a percent effect as filed. The record does not define 0% and 100%; most values in the screen are far below 50% and negative numbers occur (in some assays of this library far below -100). The compounds are a random part of those screened. A dash means the value is not listed here; it may have been measured.

compound | A | B | C | D
COc1ccc(OC)c(-c2nc(CN(C)Cc3nonc3C)c(C)o2)c1 | 1.646 | -0.5439 | -7.317 | -0.6707
COc1cc(F)c(NC(=O)N(C)Cc2cc(C)on2)cc1F | 1.556 | 0.1899 | 11.67 | 4.871
COc1cc(CN(C)C(C)c2ccccn2)cc2c1OCO2 (stereo not given) | -2.439 | 0.7524 | -7.843 | 5.352
Cc1cccc(CN2CCc3ncnc(-c4ccsc4)c3CC2)n1 | 4.061 | -6.337 | 10.84 | -2.322
Cc1cc(C)n(CC2CCCN2C(=O)c2nccc3ccccc23)n1 (stereo not given) | 7.311 | 1.63 | 2.624 | 1.449
Cc1ccccc1C(=O)N1C[C@@H]2OCCN(c3ncccn3)[C@@H]2C1 | 2.343 | 0.6206 | 5.714 | -2.264
CCNC(=O)[C@H]1CN(Cc2ccccc2)C[C@@H]1C(=O)c1ccccc1 | -9.371 | 2.375 | 2.273 | -1.5
N[C@@H](Cc1ccccc1)c1nnc(S(=O)(=O)Cc2cccc(Cl)c2)o1 | -1.937 | -1.708 | 4 | -1.156
CCS(=O)(=O)CC(C)N(C)C(=O)COc1ccccc1C#N (stereo not given) | 2.913 | 2.736 | 5.941 | 0.5155
O=C(c1ccno1)N1CCO[C@@H]2CC(COCc3ccccn3)C[C@H]21 (stereo not given in full) | 3.837 | - | 2.513 | 3.526
Cn1cnnc1-c1cncc(NCc2ccccc2Br)c1 | -4.715 | 10.45 | 5.882 | -1.889
O=C(C1CCCO1)N1CCC(n2cc(-c3ccc(F)cc3)nn2)CC1 (stereo not given) | 0.3686 | 0.5747 | 4.762 | 1.529
O=C(CCn1cc(Cl)cn1)N1CCC2(CC1)OCCCC2O (stereo not given) | 8.946 | 7.06 | -6.878 | 2.545
COc1ccc(-n2nnc(C(N)=O)n2)cc1 | 2.767 | 2.375 | 8 | -1.039
CC(NC(=O)Nc1nccs1)c1cccnc1 (stereo not given) | -3.975 | -0.6606 | -4.615 | 2.975
O=C(c1ccn(-c2ccccc2Cl)n1)N1CCCSCC1 | -0.5089 | 2.157 | 2.41 | 4.351
COc1cccc(-c2nc(CNCc3cccnc3)cs2)c1 | -0.1229 | 2.217 | 10.71 | -2.795
CCc1nnc(CN(CC)C(=O)C2CC(=O)N(C3CCCC3)C2)o1 (stereo not given) | 1.082 | -3.382 | 4 | 5.232
COCCN1CCCC(CN(C)c2nc3c(s2)c(C)nn3C)C1 (stereo not given) | -10.04 | 1.729 | 6.383 | 5.788
O=C(c1ccco1)N1C[C@@H]2OCCN(CCN3CCCC3)[C@@H]2C1 | 1.799 | 4.795 | 7.182 | 4.436
Cc1nc(NCCSc2ccccn2)c2c(C)noc2n1 | -1.261 | -2.573 | 11.11 | 1.397
O=C1CC(c2ccccc2F)c2c(n3ccsc3nc2=O)N1 (stereo not given) | -3.096 | -3.819 | -2.732 | 6.496
O=C(OCc1ccccc1)N1CC[C@H]2CC(CO)O[C@@H]2C1 (stereo not given in full) | 0.2463 | -5.478 | -3.093 | -2.605
CN(Cc1ccccc1)c1ncccc1CNC1CCCC1 | 6.519 | -2.91 | 4.598 | 0.6859
Cc1ccc(CN(C)C(=O)NCC(C)(C)S(C)(=O)=O)s1 | -0.216 | -3.359 | 2.041 | 1.346
Clc1ccccc1C1(c2ccnc(-c3ccncc3)n2)CCNCC1 | -49.09 | -1.077 | 8.368 | 0.5034
Cc1cc(S(=O)(=O)NCC(O)c2sccc2C)ccc1F (stereo not given) | -7.4 | -4.939 | 2.062 | 8.68
Cc1ccc(Oc2ncccc2C(=O)N(C)CCCN(C)C)cc1 | 2.427 | - | 0 | 3.914
CCNC(=O)c1cc2n(n1)CCCO2 | 4.087 | -4.574 | 6.061 | 0.3788
CNS(=O)(=O)c1csc(C(=O)NCc2sccc2C)c1 | 5.165 | -6.762 | 1.587 | 2.397
CCN(CC1CCCO1)C(=O)Nc1cc(C)ccc1S(C)(=O)=O (stereo not given) | 5.702 | -4.583 | 0 | 1.505
CC(C)c1nc(C2CCCN(C(=O)c3ccc4c(c3)OCO4)C2)no1 (stereo not given) | -10.72 | 15.84 | 4.843 | -1.34
Cc1cccc(C)c1OCC(=O)N1CCOCC1c1ncon1 (stereo not given) | -3.143 | -6.073 | -0.8721 | 0.4587
O=C(NCc1cccs1)[C@H]1CC[C@@H]2[C@@H](CCN2c2ncccn2)O1 | 1.863 | -1.313 | 2.674 | 7.551
O=C([C@H]1CCCO1)N1CC[C@H](O)[C@@H]1Cc1cccnc1 | 0.9877 | - | 6.349 | 3.663
CC(C)NC(=O)C1CN(Cc2cccs2)Cc2ccnn2C1 (stereo not given) | -4.017 | -4.581 | 6.452 | 3.371
O=C(c1cnco1)N1CCC(Cc2ccc3ncccc3c2)CC1 | -0.2466 | -2.111 | 16.67 | -1.415
O=C(O)c1cncc(Cc2cccc(F)c2)c1 | -3.03 | -2.732 | 5.639 | 2.914
c1csc(CN2CCCn3cnc(COCC4CC4)c3C2)c1 | 0.7614 | -5.679 | -1.97 | 3.669
Cc1ccc(OCC2CCCN(C(=O)CCn3ccccc3=O)C2)cc1 (stereo not given) | -1.077 | -4.515 | 5.579 | 0.2467
CO[C@@H]1CO[C@@]2(CCN(C(=O)COc3ccccc3C)C2)C1 | 10.32 | -2.629 | 3.226 | -2.815
O=C(c1cccnc1-n1cncn1)N1CCN(CC2CC2)CC1 | 7.463 | -1.471 | 0.8333 | -0.7401
Fc1ccc(CN2CCO[C@H]3[C@H](OCCN4CCCC4)CC[C@@H]32)cc1 | 2.919 | -0.5247 | 5.946 | 5.078
COC(=O)c1ccc(OCC(=O)N(C)Cc2ccsc2)c(OC)c1 | 3.178 | -1.175 | 0 | 1.562
COc1cc(CNC(=O)Nc2nnc(C(C)C)s2)ccn1 | -6.702 | 3.464 | 4.274 | 0.7101
O=C(c1cnc(Nc2ccccc2)nc1)N1CCC(O)(CO)CC1 | 8.779 | -6.706 | 4.545 | 3.736
CCOC(=O)c1cnn(C2CCN(C(=O)CC3C=CCC3)CC2)c1N (stereo not given) | -15.89 | -3.745 | 4.867 | 4.705
CN1CCC(N(Cc2ccncc2)C(=O)COCC2CCCCO2)CC1 (stereo not given) | 4.573 | 2.055 | 0.5291 | 4.899
COc1ncccc1CNC(=O)c1cccc(C)n1 | 0.7772 | -2.598 | 0 | 0.4454

4 of the entries, repeated:

compound,A,B,C,D
COc1cc(F)c(NC(=O)N(C)Cc2cc(C)on2)cc1F,1.556,0.1899,11.67,4.871
Cc1cc(S(=O)(=O)NCC(O)c2sccc2C)ccc1F (stereo not given),-7.4,-4.939,2.062,8.68
Cn1cnnc1-c1cncc(NCc2ccccc2Br)c1,-4.715,10.45,5.882,-1.889
CC(C)c1nc(C2CCCN(C(=O)c3ccc4c(c3)OCO4)C2)no1 (stereo not given),-10.72,15.84,4.843,-1.34

From ChEMBL document CHEMBL3988442, “University of Dundee, Small-Polar-MMV Screening Library” (2021).